{"source": "paper doi:10.1101/2021.02.02.429251", "binders": {"B1": {"name": "Grh1-GFP (GFP-tagged Golgi Reassembly and Stacking Protein Grh1 of S. cerevisiae) (protein, UniProt Q04410 1-372)", "chain": "MFRIAKNLVRTFEQSVQDTLALSQDSSNLDAFFQSIPPNLLSAQLESPVDAVSEGVKHTNVNETLSGLRIVWVDEMQFQLQSFFDYIVGFNDDPVPVVSNQHGFSYPDYRRITSIFNEHCGRTLKVNIWSAKGGTFRDEYISIISKESDDLDDVSLNHDERRPSSGEAHQFQALGFKVQWTPLIASTFTYHILNVNIPDGPAQSAGLIPDEDYIIGCQDGLLATGGETLLQDIVRSRANYDLVLYVYNKVSDCVRPITVHIGPDGRLGCNVGYGFLHRIPTVKHCPQQAQQQGQDDNPVPVPVPVESETAFVPSAFTAPPVPTKKKSKNKKGTQPLAMDDYFNEGRDKSSTAAKSAESDILAPPPQKQSSSD"}}, "biological_target": "Grh1-GFP (GFP-tagged Golgi Reassembly and Stacking Protein Grh1 of S. cerevisiae) (S. cerevisiae) (UniProt Q04410)", "assay": "ultracentrifugation in SDS, dot blot of the pellet", "note": "Results are given in words; binding and its absence hold for the method and conditions named. Some binding calls cover weakened binding; strength is not graded here. Tags and fused reporters may be left off the sequences shown.", "data": [{"binder": "B1", "values": [{"measurement": "binding", "value": "binds"}]}]}
